The list is a part of this screen's results and no random one: it gathers tests that were run many times, whatever their T/C, doses with no T/C, and many T/C values between a quarter and a half above the control. Further doses and runs are listed elsewhere. T/C is the treated group as % of the vehicle group. Some doses have a count of surviving animals in place of a T/C: the source holds a T/C of zero for them, seemingly a mark for toxic or unscored doses. Some doses without a T/C left all or most animals alive at the check, yet need not have been tolerated: survival well below the control is almost never listed, so the zero probably covers shortened survival too. Survivors were counted at the toxicity check, usually on the fifth day, unless a day is given; later deaths do not show. Schedule codes are those of the source, read here as Q, the interval in days (D) or hours (H), X, the number of doses. Some entries were tested several times; the values are given in rising order. Where survival is the endpoint, the PubChem record calls one and a half times the control and up active, and a quarter to a half above the control has no call in these data; cut-offs in other NCI protocols can differ. Some T/C values carry the count of animals alive at the toxicity check (mostly the fifth day); where none is given, no animal had died by that day.
System: P388 leukemia ip, CD2F1 mice, survival T/C
Assay: NCI In Vivo Anticancer Drug Screen. Data for tumor model P388 Leukemia (intraperitoneal) in CD2F1 (CDF1) mice
Conditions: T/C endpoint: median survival time, higher T/C = longer survival
[1] = dose: 50.0 mg/kg/injection, schedule: Q01DX009 (ip), vehicle: saline with Tween-80
[2] = dose: 100.0 mg/kg/injection, schedule: Q01DX009 (ip), vehicle: saline with Tween-80
[3] = dose: 200.0 mg/kg/injection, schedule: Q01DX009 (ip), vehicle: saline with Tween-80
[4] = dose: 25.0 mg/kg/injection, schedule: Q01DX005 (ip), vehicle: saline with Tween-80
[5] = dose: 100.0 mg/kg/injection, schedule: Q04DX003 (ip), vehicle: distilled water + Tween-80
[6] = dose: 200.0 mg/kg/injection, schedule: Q01DX005 (ip), vehicle: Klucel (hydroxypropylcellulose) (HPC)
[7] = dose: 100.0 mg/kg/injection, schedule: Q01DX005 (ip), vehicle: saline with Tween-80

`NC(CCC(=O)O)C(=O)Nc1ccc(N(CCCl)CCCl)cc1` (centres undefined) was tested, and the T/C (dose: 6.25 mg/kg/injection, schedule: Q01DX009 (ip), vehicle: saline with Tween-80) was 138 % of control, the survivor count (dose: 25.0 mg/kg/injection, schedule: Q01DX009 (ip), vehicle: saline with Tween-80) was 4 of 6 and the survivor count [1] was 1 of 6. The survivor count [2] was 0 of 6 and the survivor count [3] was 0 of 6.
`CC1(C)CC(OP(=S)(OC2CC(C)(C)N(O)C(C)(C)C2)N2CC2)CC(C)(C)N1O` was tested, and the T/C (dose: 100.0 mg/kg/injection, schedule: Q01DX009 (ip), vehicle: saline + alcohol) was 147 % of control.
In the case of `CC1=[N+]([O-])[N+]([O-])=C(c2ccccc2)C1=O`, the survivor count [3] is reported as 3 of 6.
`C=CCC(CC)(C(=O)Nc1ccc2nc(C)cc(N)c2c1)C(=O)Nc1ccc2nc(C)cc(N)c2c1` was tested, and the survivor count [4] was 6 of 6 and the survivor count (dose: 50.0 mg/kg/injection, schedule: Q01DX005 (ip), vehicle: saline with Tween-80) was 5 of 5.
`Cc1ccc(NCC2(/N=C/c3ccccc3)OC(CO)C(O)C2O)cc1` (centres undefined) was tested, and the T/C (dose: 177.0 mg/kg/injection, schedule: Q01DX009 (ip), vehicle: Klucel (hydroxypropylcellulose) (HPC)) was 149 % of control and the survivor count (dose: 600.0 mg/kg/injection, schedule: Q01DX009 (ip), vehicle: Klucel (hydroxypropylcellulose) (HPC)) was 2 of 6 and 6 of 6.
With `CCOC(=O)c1cn[nH]c1N` the survivor count (dose: 100.0 mg/kg/injection, schedule: Q01DX009 (ip), vehicle: Klucel (hydroxypropylcellulose) (HPC)) was 6 of 6 and the survivor count (dose: 200.0 mg/kg/injection, schedule: Q01DX009 (ip), vehicle: Klucel (hydroxypropylcellulose) (HPC)) was 6 of 6.
`O=[N+]([O-])c1ccccc1N/N=C\c1cccc2c(/C=N/Nc3ccccc3[N+](=O)[O-])c(Cl)n(-c3ccccc3)c12` was tested, and the survivor count (dose: 100.0 mg/kg/injection, schedule: Q01DX001 (ip), vehicle: Klucel (hydroxypropylcellulose) (HPC)) was 6 of 6 and the survivor count (dose: 400.0 mg/kg/injection, schedule: Q01DX001 (ip), vehicle: Klucel (hydroxypropylcellulose) (HPC)) was 6 of 6.
`O=C1C=CC(=O)C(C2OC(=O)C(Br)=C2Br)=C1` (centres undefined) was tested, and the survivor count (dose: 200.0 mg/kg/injection, schedule: Q01DX005 (ip), vehicle: distilled water + Tween-80) was 3 of 6.
`Nc1c2cc3c(cc2c[n+]2ccccc12)OCO3` was tested, and the T/C (dose: 25.0 mg/kg/injection, schedule: Q04DX003 (ip), vehicle: distilled water + Tween-80) was 128 % of control, the T/C (dose: 50.0 mg/kg/injection, schedule: Q04DX003 (ip), vehicle: distilled water + Tween-80) was 130 and 141 % of control and the T/C [5] was 143 % of control. For the same molecule, the survivor count [5] was 6 of 6, the survivor count (dose: 200.0 mg/kg/injection, schedule: Q04DX003 (ip), vehicle: distilled water + Tween-80) was 0 of 6 and 1 of 6 and the survivor count (dose: 400.0 mg/kg/injection, schedule: Q04DX003 (ip), vehicle: distilled water + Tween-80) was 0 of 6 and 1 of 6.
In the case of `COc1c2occc2c(CN)c2ccc(=O)oc12`, the survivor count (dose: 60.0 mg/kg/injection, schedule: Q01DX005 (ip), vehicle: saline) is reported as 0 of 6, the survivor count (dose: 120.0 mg/kg/injection, schedule: Q01DX005 (ip), vehicle: saline) is reported as 0 of 6 and the survivor count (dose: 240.0 mg/kg/injection, schedule: Q01DX005 (ip), vehicle: saline) is reported as 0 of 6.
`CN(C)CCSC(=O)N1c2ccccc2C(C)(C)c2ccccc21` was tested, and the survivor count (dose: 200.0 mg/kg/injection, schedule: Q01DX009 (ip), vehicle: saline) was 5 of 6.
For `Cc1ccc(Sc2cccc3c(C)c4cccc5c4c(c23)C[S+]5c2ccc(C)cc2)cc1` (centres undefined), the T/C (dose: 4.5 mg/kg/injection, schedule: Q01DX009 (ip), vehicle: saline with Tween-80) was 127 % of control [5 of 6 alive].
With `CC1OC(CC(=O)O)CC2=C1C(=O)c1c(O)cccc1C2=O` (centres undefined) the survivor count [1] was 0 of 6 and the survivor count (dose: 62.5 mg/kg/injection, schedule: Q01DX009 (ip), vehicle: saline with Tween-80) was 0 of 6.
For `CC(C)Cn1c(C(C)C)nc([N+](=O)[O-])c1Sc1ncn[nH]1`, the T/C (dose: 100.0 mg/kg/injection, schedule: Q01DX005 (ip), vehicle: Klucel (hydroxypropylcellulose) (HPC)) was 131 % of control and the T/C [6] was 131 and 137 % of control.
`CCCCCCCCCCCCSSSCCCCCCCCCCCC` was tested, and the survivor count (dose: 50.0 mg/kg/injection, schedule: Q01DX009 (ip), vehicle: saline) was 6 of 6 and the survivor count (dose: 100.0 mg/kg/injection, schedule: Q01DX009 (ip), vehicle: saline) was 6 of 6.
For `CNCCN=c1ccc2c3c1c(O)c1c(O)ccc(=O)c1c3[nH]n2CCNCCO`, the T/C (dose: 0.39 mg/kg/injection, schedule: Q04DX002 (ip), vehicle: water) was 145 % of control, the T/C (dose: 0.78 mg/kg/injection, schedule: Q04DX002 (ip), vehicle: water) was 147 % of control and the survivor count (dose: 25.0 mg/kg/injection, schedule: Q04DX002 (ip), vehicle: water) was 4 of 6. For the same molecule, the survivor count (dose: 50.0 mg/kg/injection, schedule: Q04DX002 (ip), vehicle: water) was 0 of 6 and the survivor count (dose: 100.0 mg/kg/injection, schedule: Q04DX002 (ip), vehicle: water) was 1 of 6.
For `C[N+]1(C)CCCC2CCc3ccccc3C21` (centres undefined), the survivor count (dose: 100.0 mg/kg/injection, schedule: Q04DX003 (ip), vehicle: Klucel (hydroxypropylcellulose) (HPC)) was 0 of 6, the survivor count (dose: 200.0 mg/kg/injection, schedule: Q04DX003 (ip), vehicle: Klucel (hydroxypropylcellulose) (HPC)) was 0 of 6 and the survivor count (dose: 400.0 mg/kg/injection, schedule: Q04DX003 (ip), vehicle: Klucel (hydroxypropylcellulose) (HPC)) was 0 of 6.
For `Cc1c(COC(=O)NC(C)C)c(COC(=O)NC(C)C)c(-c2ccccc2)n1-c1ccccc1`, the T/C (dose: 12.5 mg/kg/injection, schedule: Q01DX005 (ip), vehicle: saline with Tween-80) was 137 % of control, the T/C [4] was 148 % of control and the T/C [7] was 131 % of control. For the same molecule, the survivor count [7] was 6 of 6 and the survivor count (dose: 200.0 mg/kg/injection, schedule: Q01DX005 (ip), vehicle: saline with Tween-80) was 6 of 6.
In the case of `Clc1cccc(Cl)c1C(Nc1nncs1)Nc1nncs1`, the T/C (dose: 100.0 mg/kg/injection, schedule: Q04DX002 (ip), vehicle: saline with Tween-80) is reported as 127 and 148 % of control.
In the case of `CS(C)=NC(=Nc1ccc(Cl)cc1)c1ccccc1`, the survivor count [2] is reported as 2 of 6.
`COc1c(Br)cnc2ccccc12` was tested, and the survivor count (dose: 400.0 mg/kg/injection, schedule: Q01DX009 (ip), vehicle: distilled water + Tween-80) was 2 of 6.
`O=C(O)c1cc(Br)cc(SSc2cc(Br)cc(C(=O)O)c2O)c1O` was tested, and the survivor count [2] was 4 of 6 and the survivor count [3] was 4 of 6.
In the case of `C=CCN(CC=C)c1nc(N)c2cc(OC)c(OC)cc2n1`, the survivor count (dose: 150.0 mg/kg/injection, schedule: Q01DX009 (ip), vehicle: suspension in saline) is reported as 1 of 6.
With `C[n+]1ccc(Nc2ccc(NC(=O)c3ccc(Nc4cc[n+](C)c5ccc([N+](=O)[O-])cc45)cc3)cc2)cc1` the T/C (dose: 64.0 mg/kg/injection, schedule: Q01DX009 (ip), vehicle: saline) was 129 % of control and the survivor count (dose: 128.0 mg/kg/injection, schedule: Q01DX009 (ip), vehicle: saline) was 6 of 6.
With `CCCCOc1ccc(/C=N/NC(=O)CNC(=O)Nc2cccc([N+](=O)[O-])c2)cc1` the survivor count (dose: 120.0 mg/kg/injection, schedule: Q01DX005 (ip), vehicle: saline with Tween-80) was 6 of 6.
`O=S(=O)(O)Oc1c(S(=O)(=O)O)c(S(=O)(=O)O)c(O)c(S(=O)(=O)O)c1S(=O)(=O)O` was tested, and the survivor count (dose: 200.0 mg/kg/injection, schedule: Q01DX001 (ip), vehicle: saline with Tween-80) was 2 of 6 and the survivor count (dose: 400.0 mg/kg/injection, schedule: Q01DX001 (ip), vehicle: saline with Tween-80) was 0 of 6.
For `Cc1c(-c2ccccc2)ccnc1/C=N/NC(=S)NCCCN(C)C`, the survivor count (dose: 100.0 mg/kg/injection, schedule: Q01DX009 (ip), vehicle: other) was 2 of 6 and the survivor count (dose: 200.0 mg/kg/injection, schedule: Q01DX009 (ip), vehicle: other) was 0 of 6.
With `COc1ccc(Oc2c(OC)cc(NCc3ccc(CN)cc3)c3ncccc23)cc1` the survivor count [1] was 0 of 6, the survivor count [2] was 0 of 6 and the survivor count [3] was 0 of 6.
`Clc1nc(Cl)nc(Nc2ncccn2)n1` was tested, and the survivor count (dose: 240.0 mg/kg/injection, schedule: Q01DX005 (ip), vehicle: Klucel (hydroxypropylcellulose) (HPC)) was 2 of 6.
In the case of `C=CCN(CC=C)P(=O)(N(CC=C)CC=C)N(CC=C)CC=C`, the survivor count [6] is reported as 0 of 6.

From PubChem BioAssay AID330 (DTP/NCI, 2004)
